Data reported in PubChem BioAssay AID493014 (National Center for Advancing Translational Sciences (NCATS), 2011).
Some of the results follow. Further columns of the screen follow, without active or inactive calls. The list favours compounds with an active or inconclusive main result. Words in brackets tell the shape of the fitted curve; partial curves, single points and poor fits give uncertain potencies.

Assay: qHTS Assay to Find Inhibitors of Chronic Active B-Cell Receptor Signaling
Conditions: ABC-DLBCL IkBa-CBG/CBR reporter, luminescence ratio (green luciferase fused to IkBa over red control in TMD8 lymphoma cells), 4 h
Procedure, shortened: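 TMD8 human ABC-DLBCL cells with doxycycline-inducible IκBα–green luciferase fusion and unfused red luciferase, in 0.5% FBS medium; compounds up to 46 uM, 4 h at 37C. Green/red luminescence ratio, filter-overlap corrected, fitted to concentration-response curves.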

[1] = measured here: CBR red luminescence, cell number
[2] = measured here: IkBa-CBG green luminescence

Structure (SMILES)	AC50 [1]	AC50 [2]
CC(C)(C)C(=O)Nc1ccc(N2CCN(c3ccc(C(F)(F)F)cn3)CC2)nc1	35.5 µM [rising, single point]	–
Cc1cc(Cl)ccc1NC(=S)NC1CCCC1	0.447 µM [rising, partial curve, poor fit]	–
Cc1cc(NC(=O)CSc2nnc(-c3cccs3)n2N)no1	1.78 µM [falling, partial curve]	–
Cc1cc2oc(=O)cc(CN(C)Cc3ccccc3F)c2cc1Cl	5.62 µM [rising, full curve, poor fit]	–
CCN1CC(CN(C)Cc2cn(-c3ccc(C)cc3)nc2-c2cccc(C)c2)CC1=O (stereo unspecified)	22.4 µM [falling, single point]	–
COc1ccc(NC(=O)COc2ccccc2)cc1Cl	20 µM [rising, partial curve, poor fit]	–
Cc1ccc(N(CC(=O)NCC2CCCO2)S(C)(=O)=O)cc1Cl (stereo unspecified)	14.6 µM [rising, single point]	–
COc1ccc(N2CC(C)Cn3c2nc2c3c(=O)n(Cc3ccccc3)c(=O)n2C)c(OC)c1 (stereo unspecified)	14.1 µM [falling, single point]	–
C/C(=N\Nc1nnc2c3ccccc3n(C)c2n1)c1ccc(C)o1	18.4 µM [falling, partial curve, poor fit]	–
O=C(c1ccccc1)c1cnc(-c2ccc(Cl)cc2)s1	0.891 µM [falling, full curve, poor fit]	–
CCn1c(=O)cc(OCC(=O)NCCC(C)C)c2ccccc21	16.4 µM [rising, partial curve, poor fit]	–
CCCCN(CCCC)S(=O)(=O)c1ccc(NC(=O)c2cccs2)cc1	–	16.4 µM [rising, partial curve, poor fit]
O=C(O)c1cc(-c2cccc(Cl)c2)nc2nc(N3CCCCC3)sc12	13 µM [rising, partial curve]	–
Cc1c(N=C(N)/N=C(\N)Nc2ccc(Br)cc2)c(=O)n(-c2ccccc2)n1C	18.4 µM [falling, partial curve, poor fit]	–
COc1ccc(-n2c(SCC(=O)Nc3ccc(Cl)c(C)c3)nc3n[nH]c(C)c3c2=N)cc1	12.6 µM [falling, single point]	–
CCCCc1nc2cc(C(=O)NC3CCOC(C)(C)C3)ccc2o1 (stereo unspecified)	15.8 µM [rising, partial curve, poor fit]	–
O=C(COc1ccc(Cl)cc1Cl)NCc1ccncc1	6.31 µM [rising, full curve]	–
CCOC(=O)c1c(NC(=O)c2ccc(S(=O)(=O)N3CCC(C)CC3)cc2)sc2c1CCN(C)C2	10 µM [rising, partial curve, poor fit]	–
N#Cc1ccc(C(=O)Nc2nc(SCc3ccc(Cl)cc3)n[nH]2)cc1	35.5 µM [falling, partial curve, poor fit]	–
Cc1ccc(N2CC(C(=O)Nc3nc4ccc(S(C)(=O)=O)cc4s3)CC2=O)cc1C (stereo unspecified)	35.5 µM [falling, single point]	–
CCC(=O)NCCc1nc2cc(NC(=O)c3ccccc3Cl)ccc2n1C	10 µM [falling, partial curve]	–
C/C(=N\NC(=O)c1ccc(Cl)cc1)c1cccs1	35.5 µM [falling, single point]	–

Nothing new here: 13 of the compounds above.
Structure (SMILES)	AC50 [1]	AC50 [2]
CCN1CC(CN(C)Cc2cn(-c3ccc(C)cc3)nc2-c2cccc(C)c2)CC1=O (stereo unspecified)	22.4 µM [falling, single point]	–
COc1ccc(NC(=O)COc2ccccc2)cc1Cl	20 µM [rising, partial curve, poor fit]	–
Cc1ccc(N(CC(=O)NCC2CCCO2)S(C)(=O)=O)cc1Cl (stereo unspecified)	14.6 µM [rising, single point]	–
COc1ccc(N2CC(C)Cn3c2nc2c3c(=O)n(Cc3ccccc3)c(=O)n2C)c(OC)c1 (stereo unspecified)	14.1 µM [falling, single point]	–
C/C(=N\Nc1nnc2c3ccccc3n(C)c2n1)c1ccc(C)o1	18.4 µM [falling, partial curve, poor fit]	–
O=C(c1ccccc1)c1cnc(-c2ccc(Cl)cc2)s1	0.891 µM [falling, full curve, poor fit]	–
CCn1c(=O)cc(OCC(=O)NCCC(C)C)c2ccccc21	16.4 µM [rising, partial curve, poor fit]	–
CCCCN(CCCC)S(=O)(=O)c1ccc(NC(=O)c2cccs2)cc1	–	16.4 µM [rising, partial curve, poor fit]
O=C(O)c1cc(-c2cccc(Cl)c2)nc2nc(N3CCCCC3)sc12	13 µM [rising, partial curve]	–
Cc1c(N=C(N)/N=C(\N)Nc2ccc(Br)cc2)c(=O)n(-c2ccccc2)n1C	18.4 µM [falling, partial curve, poor fit]	–
COc1ccc(-n2c(SCC(=O)Nc3ccc(Cl)c(C)c3)nc3n[nH]c(C)c3c2=N)cc1	12.6 µM [falling, single point]	–
CCCCc1nc2cc(C(=O)NC3CCOC(C)(C)C3)ccc2o1 (stereo unspecified)	15.8 µM [rising, partial curve, poor fit]	–
O=C(COc1ccc(Cl)cc1Cl)NCc1ccncc1	6.31 µM [rising, full curve]	–

Going on with the list.

Structure (SMILES)	AC50 [1]	AC50 [2]
O=C(Nc1nc2ccccc2[nH]1)c1ccc(Cl)cc1	0.794 µM [falling, full curve]	–
CCc1ccc2oc(C(=O)N3CCN(C)CC3)cc(=O)c2c1	17.8 µM [falling, single point]	–
CCCOC(=O)Nc1cccc(C(C)=O)c1	2.31 µM [rising, full curve]	–
Cc1ccc(NC(=O)Cn2c(O)c(N=NC(=O)c3ccncc3)c3ccccc32)cc1	8.91 µM [rising, partial curve, poor fit]	–
CCOC(=O)c1ccc(Oc2nc(NC(C)(C)C)nc(N(C)C)n2)cc1	29.1 µM [falling, single point]	–
COc1cccc(C(=O)N/N=C2/SCC(=O)N2CCc2ccc(OC)c(OC)c2)c1	5.8 µM [falling, single point]	–
COc1ccc(Cl)cc1NC(=O)CN1CCCCCC1	12.6 µM [falling, partial curve]	–
CCCCC1C(=O)CC[C@H]2[C@@H]1CC(=O)[C@@H]2C/C=C\CCCC(=O)O (stereo partly specified)	–	5.8 µM [falling, partial curve]
O=C(COC(=O)CSc1ccc([N+](=O)[O-])cc1)NCCCc1ccccc1	7.94 µM [falling, partial curve]	–
O=C(COC(=O)/C=C/c1cccs1)Nc1ccccc1Cl	0.794 µM [falling, full curve, poor fit]	–
CC(=O)Nc1cc(C(=O)NCc2ccccc2Cl)ccc1Sc1ccc(F)cc1	0.891 µM [rising, full curve, poor fit]	–
Cc1ccccc1/C=N/NC(=O)c1sccc1C	14.6 µM [falling, partial curve]	–
CSc1ccccc1NC(=O)c1cc(Cl)sc1Cl	1.26 µM [rising, full curve, poor fit]	–
CCN(CC)S(=O)(=O)c1ccc(NC2c3ccccc3C(=O)N2Cc2ccc3c(c2)OCO3)cc1 (stereo unspecified)	0.0058 µM [falling, full curve, poor fit]	–
O=C1C=C(c2cccc3c2oc2ccccc23)C[C@@H](c2ccc(F)cc2)C1	2.59 µM [rising, full curve]	–
CN(C)/C=N/NC(=O)c1ccccc1	1.78 µM [falling, partial curve, poor fit]	–
O=C(Nc1ccccc1)c1ccc(-c2ccc(Br)cc2)o1	29.1 µM [falling, single point]	–
COc1cc2c(cc1OC)C1=CC(=O)C(=O)N1C(C)(C)C2	2 µM [rising, full curve, poor fit]	7.94 µM [falling, partial curve, poor fit]
COc1ccc(-c2csc(Nc3ccccn3)n2)cc1OC	22.4 µM [falling, single point]	–
COc1ccc2[nH]c3c(N4CCC(O)(c5cccc(C(F)(F)F)c5)CC4)ncnc3c2c1	35.5 µM [falling, single point]	–
C/C(=N/NS(C)(=O)=O)c1ccc2ccccc2c1	14.6 µM [rising, partial curve, poor fit]	–
CC(C)c1cc(C(=O)Nc2ccc3c(c2)OCO3)no1	4.11 µM [falling, full curve]	–

Structure (SMILES)	AC50 [1]	AC50 [2]
CCOC(=O)c1sc2nc(N3CCCC3)c3c(c2c1N)CC(C)(C)OC3	0.316 µM [rising, full curve, poor fit]	–
COC(=O)C1=C(C)N(CC(C)C)C(=O)/C1=C\c1cccs1	1.03 µM [rising, full curve, poor fit]	–
Cc1cc(C)cc(OCC(O)CN2CCC(CN3C(=O)c4cccc5cccc(c45)C3=O)CC2)c1 (stereo unspecified)	35.5 µM [rising, single point]	–
CC(=O)Nc1ccc2nc(-c3ccccn3)[nH]c2c1	7.08 µM [falling, partial curve, poor fit]	–
Cc1ccc(S(=O)(=O)Nc2c(Cl)c(Cl)c(O)c3ccccc23)cc1	35.5 µM [falling, single point]	–
CCN1CCN(Cc2ccc(NC(=O)c3cc(NC(=O)c4nccnc4N)cc(OC)c3)cc2C(F)(F)F)CC1	35.5 µM [falling, single point]	–
O=C(/C=C\Nc1cccc(F)c1)c1ccc2c(c1)OCO2	7.94 µM [falling, partial curve]	–
Cc1oc(-c2ccc(Cl)cc2)nc1CN1CCC(C(=O)NCc2cccnc2)CC1	35.5 µM [falling, single point]	–
C/C(=N\Nc1ccc(Cl)cc1)c1ccccn1	0.231 µM [rising, full curve, poor fit]	–
CN(C(=O)COC(=O)c1nc(Cl)c(Cl)c(Cl)c1Cl)C1CCS(=O)(=O)C1 (stereo unspecified)	7.08 µM [falling, full curve]	–
COc1cccc(C(C(=O)NC2CCCC2)N(Cc2ccccc2OC)C(=O)c2ccco2)c1 (stereo unspecified)	29.1 µM [falling, single point]	–
S=C(NCCc1c[nH]c2ccccc12)NC1CCCCC1	1 µM [rising, full curve, poor fit]	–
Cc1ccccc1Nc1nc(N)nc(CSc2nc3ccccc3c(=O)n2CCCO)n1	3.98 µM [rising, partial curve, poor fit]	–
CCCNC(=O)c1ccccc1NC(=O)C1COc2ccccc2O1 (stereo unspecified)	11.2 µM [rising, partial curve, poor fit]	–
O=C(NCc1nc2ccccc2[nH]1)C1=C[C@H](c2ccccc2)C[C@H](OCCCCO)O1	35.5 µM [rising, partial curve, poor fit]	–
CC(C)(C)n1nnnc1C(c1cccs1)N1CCN(c2ccccc2)CC1 (stereo unspecified)	29.1 µM [rising, single point]	–
Cc1cc(C)n2ncc(-c3cccc(Br)c3)c2n1	6.31 µM [rising, partial curve, poor fit]	–
COc1ccc(CNC(=O)C/C(C)=N/NC(=O)COc2ccc(C)cc2Br)cc1	35.5 µM [rising, single point]	35.5 µM [falling, single point]
CCN1C/C(=N\S(=O)(=O)/N=C2\CN(CC)C(=O)N2CC)N(CC)C1=O	2.51 µM [rising, full curve, poor fit]	–
Cc1ccc(C(=O)N2CCN(C(=O)c3ccccc3)C2c2ccc(N(C)C)cc2)cc1 (stereo unspecified)	29.1 µM [rising, single point]	–
